Results are given in words; binding and its absence hold for the method and conditions named. In cells and extracts the contact can be indirect. Here binding means that the protein was enriched with, or labelled near, the bait; the list need not be complete. Where a sequence is shown, tags or fusion partners need not be part of it. One block for each binder: values may come before it.
Biological target: T1, HA-tagged SLC38A9 (mouse) (UniProt Q8BGD6)
T1 sequence: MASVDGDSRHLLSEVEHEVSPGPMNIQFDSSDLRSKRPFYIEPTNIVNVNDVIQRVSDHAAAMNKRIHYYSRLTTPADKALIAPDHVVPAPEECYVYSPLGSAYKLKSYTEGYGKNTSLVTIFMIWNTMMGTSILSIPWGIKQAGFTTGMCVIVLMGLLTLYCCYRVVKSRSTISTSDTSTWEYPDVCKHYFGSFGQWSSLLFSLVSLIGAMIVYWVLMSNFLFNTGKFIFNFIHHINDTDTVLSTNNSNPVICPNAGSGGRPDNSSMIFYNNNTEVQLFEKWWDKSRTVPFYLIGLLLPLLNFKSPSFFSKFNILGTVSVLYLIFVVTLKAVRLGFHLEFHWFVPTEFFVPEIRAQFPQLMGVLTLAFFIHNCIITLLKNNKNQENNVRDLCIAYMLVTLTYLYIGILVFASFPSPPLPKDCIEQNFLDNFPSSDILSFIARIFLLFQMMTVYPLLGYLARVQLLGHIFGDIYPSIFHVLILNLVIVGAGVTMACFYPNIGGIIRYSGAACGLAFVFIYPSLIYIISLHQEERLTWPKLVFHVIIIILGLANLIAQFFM
Assay: affinity purification with mass spectrometry; C2C12 cells transfected 48 h with HA-tagged SLC38A9 or empty pCMV-HA; anti-HA-Tag (3724) immunoprecipitation from lysate, 10% SDS-PAGE, Coomassie, differential bands cut, LC-MS/MS

binding: binds
B1: RPS6KC1 (protein, UniProt Q8BLK9 1-1056)
chain: MTSPWGHSADLARFYTVTEPQRHPRGYTVYKVTARVVSRRNPEDVQEIIVWRRYSDFKKLHRELWQIHRNAFRHSELFPPFAKGTVFGRFDKTVIEERRQCAEDLLQFSANIPALYNSRQLQDFFKGGVISDGSELIGPAEAYPDSPANAFPECGTEGFSSDSDLLSLTVDADSLAEVDDGMASRQGSPSRTFGLSLSTDSSAVGAVASDSEPSRVEDRESRSLFPSSLKPRLGRRDYLEKAGELIKLALKKEEEDDYEAASDFYRKGVDLLLEGVQGESSPTRREAVKRRTAEYLMRAESICSLRAAPQLHTGPQPPGSLSSRPPWSLRSPAEELKAFRVLGVIDKVLLVMDTRTEQTFILKGLRKSSECSRNRKTIIPRCVPNMVCLHTYIISEESVFLVLQRAEGGKLWSYISKFLNRSSQESLDIKEGRPSMPPRVCLQQPSASPQGGSSFESRGSDTGSMLKALPLKTSLTPSSQDDSNQEDDGQPSSPKWLDSGSSSEDECTAGYLTLCNEYGQEKMDLVSLSEESVMQPEGDKADTQAVSSPASLATGSVSPSTHLRVFSGGEDLEAVSSPPTSESLSRSKNSPMEFFRIDSKDSTSELLGLDFGEKLHSLKPEPLKALFTLEDGDSPSQSLDPGESKRESEAQDSVSRGSDDSVPVISFKEAAAEAISGAEEGRPDLLVNLPGELQPTKEASAMDPKFSQASAGRLDSKLLEAPDVLCLRLSSEQCHGLGPEGPEELSDPTEFCPGGVIPEHDAQADPGVLFEAAVDHRSSPDQFLFSSLRSESDRLGQVEVVVTAQALQESLFHISSPCSGANKEHSAYADTATSEEVLLFTEPTKEEANSLFQRGSEAQERGVGAGEADKEIHQIFEDLDKRLAASSRFFIPEGCIQRWAAEMVVALDALHREGIVCRDLNPNNILLNDGGHIQLTYFSRWSEVEDSCDSDAVARMYCAPEVGAVTEETEACDWWSLGAVLFELLTGKTLVECHPAGINTHTTLNMPGCVSEEARSLIQQLLQFNPMERLGAGVAGVEDIKSHPFFTPVDWAELTR

binding: binds
B2: KAT8 (protein, UniProt Q9D1P2 1-458)
chain: MAAQGATAAVAATTSGTVGEGEPGPGENAAVEGPARSPGRVSPPTPARGEPEVTVEIGETYLCRRPDSTWHSAEVIQSRVNDQEGREEFYVHYVGFNRRLDEWVDKNRLALTKTVKDAVQKNSEKYLSELAEQPERKITRNQKRKHDEINHVQKTYAEMDPTTAALEKEHEAITKVKYVDKIHIGNYEIDAWYFSPFPEDYGKQPKLWLCEYCLKYMKFEKSYRFHLGQCQWRQPPGKEIYRKSNISVYEVDGKDHKIYCQNLCLLAKLFLDHKTLYFDVEPFVFYILTEVDRQGAHIVGYFSKEKESPDGNNVACILTLPPYQRRGYGKFLIAFSYELSKLESTVGSPEKPLSDLGKLSYRSYWSWVLLEILRDFRGTLSIKDLSQMTSITQNDIISTLQSLNMVKYWKGQHVICVTPKLVEEHLKSAQYKKPPITVDSVCLKWAPPKHKQVKLSKK

Reference: paper PMC8467208
